Experimental data reported in patent US20080311656A1, “Meiosis arrest in oocytes in vitro” (Novo Nordisk A/S, priority 2002, published 2008).

Test system: Human oocytes (COCs)
Experiment: Light and electron microscopy of oocytes arrested by DDMP
Format: cell-based
Procedure: During evaluation at 24 hours and 48 hours culture, part of the oocytes with and without DDMP were fixed for EM analysis.
A total of 48 oocytes (4 at time of retrieval, 21 after 24 hours, 20 after 48 hours and 3 after 72 hours culture) were fixed in glutaraldehyde 2.5% in cacodylate buffer at pH 7.3 for at least 2 hours at 4° C. at time 0 h, 24 hours and 48 hours of maturation. All oocytes were embedded individually. Afterwards, they were postfixed in OsO4 1% in H2O for 30 min, stained with uranyl acetate 2% in veronal buffer for 60 min, dehydrated through graded alcohols, embedded in SPURR (Taab; Bodson, Liège, Belgium) and left to polymerize overnight at 70° C.
Semithin sections of 0.5 μm and ultrathin sections of 75 nm were made at approximately 30 levels (range 15-35). The semithin sections were mounted on glass slides and stained with toluidine blue for light microscopical guidance. […]
In order to analyse the effect of PDE 3 inhibition on nuclear and cytoplasm organization, ultrastructural observation was performed at the different culture times in oocytes arrested or not by DDMP. The oocytes analyzed did originate from follicles with diameter between 8-12 mm.

SMILES: COc1cc2cc(C3=NNC(=O)CC3C)sc2cc1OC (centres unmarked) [DDMP, 4,5-dihydro-6-(5,6-dimethoxybenzo[b]thien-2-yl)-5-methyl-3(2H)-pyridazinone]
- nuclear morphology of GV oocytes (nuclear membrane) (DDMP for 72 hours): nuclear membrane remained intact and unfolded
- migration of organelles in the GV-stage oocytes (prolonged nuclear arrest, organelles start to dissociate after 48 hours in DDMP culture): seemed to affect the migration of organelles
